The values below come from the supplement of paper PMC10470496.

Structures can show the parent of a compound that is named as a salt. The list shows a part of the results. Single values are uncertain, as repeats are few or missing.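 Three clinical Candida auris isolates (clades III, IV and I) from the CDC resistance isolate bank were grown in RPMI-1640 at 35°C. Growth was background-corrected OD600 relative to same-plate vehicle-only wells. Hits required over 50% inhibition in at least two strains and a plate-corrected B-score above 0.1.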

Some test systems named below: C. auris AR-384; C. auris AR-386; C. auris AR-387.
What all share (assay): growth relative to vehicle control (OD600 ratio) (fraction); higher = less inhibition
What all share (settings): 24 h

As for `CC(C)(CO)[C@@H](O)C(=O)NCCCO` [D-Panthenol], the growth was 0.9 in the test on C. auris AR-384 (1 µM); 0.88 in the test on C. auris AR-384 (10 µM); 1.01 in the test with C. auris AR-386 (1 µM); 1.06 with C. auris AR-386 (10 µM); 0.69 with C. auris AR-387 (1 µM); 0.97 in the test with C. auris AR-387 (10 µM).
Take `O=C(O)Cc1cc(I)c(Oc2ccc(O)c(I)c2)c(I)c1` [Tiratricol]: the growth is 0.8 in the test on C. auris AR-384 (1 µM); 0.92 in the test on C. auris AR-384 (10 µM); 1.01 in the test on C. auris AR-386 (1 µM); 1.15 in the test on C. auris AR-386 (10 µM); 0.73 in the test with C. auris AR-387 (1 µM); 0.95 in the test on C. auris AR-387 (10 µM).
For the compound `CO[C@H]1C(=O)[C@]2(C)[C@@H](OC)C[C@H]3OC[C@@]3(OC(C)=O)[C@H]2[C@H](OC(=O)c2ccccc2)[C@]2(O)C[C@H](OC(=O)[C@H](O)[C@@H](NC(=O)OC(C)(C)C)c3ccccc3)C(C)=C1C2(C)C` [Cabazitaxel], the growth with C. auris AR-384 (1 µM) amounted to 0.94; with C. auris AR-384 (10 µM), 0.82; in the test with C. auris AR-386 (1 µM), 0.79; in the test on C. auris AR-386 (10 µM), 1.05; in the test with C. auris AR-387 (1 µM) it was 0.69; with C. auris AR-387 (10 µM) it was 0.77.
With `CC(=O)Oc1ccccc1C(=O)Nc1ncc([N+](=O)[O-])s1` [Nitazoxanide], the growth with C. auris AR-384 (1 µM) stood at 1.04; with C. auris AR-384 (10 µM) it was 0.81; with C. auris AR-386 (1 µM), 0.9; in the test with C. auris AR-386 (10 µM), 0.8; with C. auris AR-387 (1 µM), 1.15; in the test on C. auris AR-387 (10 µM), 0.78.
In the case of `CN(C/C=C/C#CC(C)(C)C)Cc1cccc2ccccc12` [Terbinafine HCl], the growth was 0.56 in the test with C. auris AR-384 (1 µM); 0.65 in the test on C. auris AR-384 (10 µM); 0.39 in the test on C. auris AR-386 (1 µM); 0.36 in the test with C. auris AR-386 (10 µM); 0.4 in the test on C. auris AR-387 (1 µM); 0.32 in the test with C. auris AR-387 (10 µM).
`CC(=O)Oc1cccc2c1C(=O)c1c(OC(C)=O)cc(C(=O)O)cc1C2=O` [Diacerein]: the growth with C. auris AR-384 (1 µM) worked out at 0.75; in the test on C. auris AR-384 (10 µM), 0.83; with C. auris AR-386 (1 µM), 0.68; in the test with C. auris AR-386 (10 µM), 0.72; in the test with C. auris AR-387 (1 µM) it was 0.86; in the test with C. auris AR-387 (10 µM) it was 0.73.
On to `Nc1nnc(-c2cccc(Cl)c2Cl)c(N)n1` [Lamotrigine], for which the growth came out at 0.91 in the test with C. auris AR-384 (1 µM); 0.87 in the test with C. auris AR-384 (10 µM); 1.01 in the test on C. auris AR-386 (1 µM); 0.96 with C. auris AR-386 (10 µM); 0.88 with C. auris AR-387 (1 µM); 0.86 in the test with C. auris AR-387 (10 µM).
On to `CC(C)OC(=O)[C@H](C)N[P@](=O)(OC[C@H]1O[C@@H](n2ccc(=O)[nH]c2=O)[C@](C)(F)[C@@H]1O)Oc1ccccc1` [Sofosbuvir (PSI-7977, GS-7977)], for which the growth in the test on C. auris AR-384 (1 µM) came out at 0.95; in the test with C. auris AR-384 (10 µM), 1.17; with C. auris AR-386 (1 µM), 0.97; with C. auris AR-386 (10 µM), 0.74; in the test with C. auris AR-387 (1 µM) it was 0.81; in the test with C. auris AR-387 (10 µM), 0.67.
In the case of `CC1(C)[C@@H](O[C@H]2O[C@H](C(=O)O)[C@@H](O)[C@H](O)[C@H]2O[C@@H]2O[C@H](C(=O)O)[C@@H](O)[C@H](O)[C@H]2O)CC[C@]2(C)[C@H]3C(=O)C=C4[C@@H]5C[C@@](C)(C(=O)O)CC[C@]5(C)CC[C@@]4(C)[C@]3(C)CC[C@@H]12` [Ammonium Glycyrrhizinate], the growth came out at 0.94 in the test on C. auris AR-384 (1 µM); 0.86 with C. auris AR-384 (10 µM); 0.99 with C. auris AR-386 (1 µM); 0.83 with C. auris AR-386 (10 µM); 1.02 in the test on C. auris AR-387 (1 µM); 0.93 in the test on C. auris AR-387 (10 µM).
Consider `COc1ccc2c(c1)c(CC(=O)OCC(=O)O)c(C)n2C(=O)c1ccc(Cl)cc1` [Acemetacin], for which the growth in the test with C. auris AR-384 (1 µM) was 0.98; with C. auris AR-384 (10 µM) it was 1.12; in the test on C. auris AR-386 (1 µM) it was 0.9; in the test with C. auris AR-386 (10 µM) it was 0.9; with C. auris AR-387 (1 µM) it was 0.84; in the test on C. auris AR-387 (10 µM) it was 0.8.
As to `COc1nc(C)cnc1NS(=O)(=O)c1cccnc1-c1ccc(-c2nnco2)cc1` [Zibotentan (ZD4054)], the growth in the test on C. auris AR-384 (1 µM) amounted to 0.64; in the test with C. auris AR-384 (10 µM) it was 0.72; in the test with C. auris AR-386 (1 µM), 1.05; in the test on C. auris AR-386 (10 µM) it was 1.09; in the test on C. auris AR-387 (1 µM), 1.03; in the test on C. auris AR-387 (10 µM), 0.84.
With `CC(=O)O[C@H]1Cc2ccccc2N(C(N)=O)c2ccccc21` [Eslicarbazepine Acetate], the growth was 0.75 with C. auris AR-384 (1 µM); 0.82 with C. auris AR-384 (10 µM); 0.78 in the test on C. auris AR-386 (1 µM); 0.8 with C. auris AR-386 (10 µM); 0.97 with C. auris AR-387 (1 µM); 0.93 with C. auris AR-387 (10 µM).
As for `O=S(=O)(O)CCCS(=O)(=O)O` [Eprodisate disodium], the growth in the test with C. auris AR-384 (1 µM) amounted to 1.22; in the test with C. auris AR-384 (10 µM), 1.03; in the test with C. auris AR-386 (1 µM) it was 1.1; in the test on C. auris AR-386 (10 µM), 1.13; in the test with C. auris AR-387 (1 µM) it was 0.81; with C. auris AR-387 (10 µM) it was 1.07.
For `C[C@@H](O)[C@H]1C(=O)N2C(C(=O)O)=C(SCCNC=N)C[C@H]12` [Imipenem], the growth in the test with C. auris AR-384 (1 µM) was found to be 0.79; with C. auris AR-384 (10 µM) it was 0.6; in the test with C. auris AR-386 (1 µM), 1.06; in the test with C. auris AR-386 (10 µM), 0.48; in the test with C. auris AR-387 (1 µM), 0.71; in the test with C. auris AR-387 (10 µM), 0.91.
For `Cc1[nH]c(/C=C2\C(=O)Nc3ccccc32)c(C)c1CCC(=O)O` [Orantinib (TSU-68, SU6668)], the growth in the test with C. auris AR-384 (1 µM) stood at 0.88; with C. auris AR-384 (10 µM), 0.69; in the test with C. auris AR-386 (1 µM), 1.15; in the test with C. auris AR-386 (10 µM) it was 1.25; with C. auris AR-387 (1 µM) it was 0.91; in the test with C. auris AR-387 (10 µM), 0.88.
Turning to `Cc1cn([C@@H]2C[C@@H](O)[C@H](CO)O2)c(=O)[nH]c1=O` [Telbivudine], the growth in the test on C. auris AR-384 (1 µM) was 1.1; in the test on C. auris AR-384 (10 µM), 0.65; with C. auris AR-386 (1 µM), 0.51; in the test on C. auris AR-386 (10 µM), 0.88; in the test on C. auris AR-387 (1 µM) it was 0.75; with C. auris AR-387 (10 µM), 0.85.
Consider `CC(C)(Oc1ccc(Cl)cc1)C(=O)OCCOC(=O)c1cccnc1` [Etofibrate], for which the growth was 0.93 with C. auris AR-384 (1 µM); 0.82 in the test with C. auris AR-384 (10 µM); 0.84 with C. auris AR-386 (1 µM); 0.85 in the test on C. auris AR-386 (10 µM); 0.8 with C. auris AR-387 (1 µM); 0.65 with C. auris AR-387 (10 µM).
On to `CCCc1nn(C)c2c(=O)[nH]c(-c3cc(S(=O)(=O)N4CCN(C)CC4)ccc3OCC)nc12` [Sildenafil], for which the growth in the test on C. auris AR-384 (1 µM) turned out to be 1.33; in the test with C. auris AR-384 (10 µM), 1.17; with C. auris AR-386 (1 µM) it was 1.19; in the test on C. auris AR-386 (10 µM), 1.09; with C. auris AR-387 (1 µM) it was 1.26; with C. auris AR-387 (10 µM) it was 1.2.
For the compound `CN(CCOc1ccc(NS(C)(=O)=O)cc1)CCc1ccc(NS(C)(=O)=O)cc1` [Dofetilide], the growth in the test on C. auris AR-384 (1 µM) is 0.75; with C. auris AR-384 (10 µM) it was 0.99; in the test on C. auris AR-386 (1 µM) it was 0.92; in the test with C. auris AR-386 (10 µM), 0.74; with C. auris AR-387 (1 µM), 0.79; in the test on C. auris AR-387 (10 µM), 0.95.
Consider `CC(=O)O[C@H]1C[C@@]2(C)[C@@H](C[C@@H](O)[C@H]3[C@@]4(C)CC[C@@H](O)[C@@H](C)[C@@H]4CC[C@@]32C)/C1=C(\CCC=C(C)C)C(=O)O` [Fusidate Sodium], for which the growth in the test on C. auris AR-384 (1 µM) was determined as 0.86; in the test on C. auris AR-384 (10 µM), 0.6; in the test with C. auris AR-386 (1 µM), 0.83; in the test with C. auris AR-386 (10 µM) it was 0.55; with C. auris AR-387 (1 µM), 0.89; with C. auris AR-387 (10 µM) it was 0.82.
On to `OC(CCN1CCCC1)(c1ccccc1)C1CCCCC1` (configuration not stated) [Procyclidine HCl], for which the growth with C. auris AR-384 (1 µM) is 0.76; with C. auris AR-384 (10 µM) it was 0.82; in the test with C. auris AR-386 (1 µM), 0.78; in the test on C. auris AR-386 (10 µM), 0.86; with C. auris AR-387 (1 µM) it was 0.81; in the test on C. auris AR-387 (10 µM), 1.01.
For `O=C(O)c1ccccc1O` [Salicylic acid], the growth in the test with C. auris AR-384 (1 µM) came to 0.73; in the test with C. auris AR-384 (10 µM) it was 0.64; in the test on C. auris AR-386 (1 µM) it was 0.79; in the test on C. auris AR-386 (10 µM) it was 0.57; in the test with C. auris AR-387 (1 µM), 0.78; with C. auris AR-387 (10 µM) it was 0.64.
